The source of these data is PMC3119050, “High-Resolution X-Ray Structure of the Trimeric Scar/WAVE-Complex Precursor Brk1” (PLoS ONE, 2011).

These are yes or no findings as the source states them, for the method shown. For part of these data: Binding seen in cells or lysates may run through a third protein. Some binding calls cover weakened binding; strength is not graded here. Sequences can lack the tags named with a protein.

Test [1] addresses T1, GST-DdBrk1 (coexpressed with Scar(1-225) and AbiA(1-149)) (Dictyostelium discoideum) (UniProt Q54X65).
T1 sequence: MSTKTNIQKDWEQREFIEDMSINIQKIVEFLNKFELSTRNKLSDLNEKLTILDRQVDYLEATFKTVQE
In words: pull-down; GST-DdBrk1 coexpressed in E. coli with untagged Scar(1-225) and AbiA(1-149); glutathione sepharose affinity chromatography from bacterial extracts, eluted with PBS and 30 mM reduced glutathione.

Test [2] has as its target Dictyostelium discoideum Brk1 (DdBrk1), GST tag removed (Dictyostelium discoideum) (UniProt Q54X65). In words: crystal structure; hanging drop, 40% MPD, 0.2 M CaCl2, 20°C; trimer built from symmetry mates of the 3-fold axis; 1.5 Å; both purified.

B1: AbiA (aa1-149) of Dictyostelium discoideum (domain or fragment, UniProt Q55FT9 1-149)
chain: MSESIDINVYSQTTIPNAMAELMDNHNKMEQISAYCKSLYANGDAAQAYEQTQGYAKNALLNVAYHIQTVGTHITSLLQLQTNEMEKLNIEIQTLTQRVRMIHDSTGTNVFSNQDAAKPYKSSLKNRKVDTEATKAPVKYVHKPISYGI
Consider B1, for which the binding result in test [1] is on record as “binds”.

B2: Scar (aa1-225) of Dictyostelium discoideum (domain or fragment, UniProt Q54NF8 1-225)
chain: MVLITRYLPSVTDNNQPALEGQSKDQIVDTVITSTTVGIINQLTMLVAHSNSIFTALANDANLVTQRIEKLGSRIRPLIQSIPSIEDYHRNTSIDTMNSKPRAEFHADNSERNQHFTHASIPASINTVYEKCKPPPNLQLLDPYMDDGQKSLKLYTNPDFFMDEWVAEQQKLHEEARQRKRERREARLKKKGEKNEVEVKKVKSVTKVRYDPVTGEKITINIESP
B2: in test [1], the binding result is recorded as “binds”.

B3: Dictyostelium discoideum Brk1 (DdBrk1), GST tag removed (natural protein)
chain: GPLGSMSTKTNIQKDWEQREFIEDMSINIQKIVEFLNKFELSTRNKLSDLNEKLTILDRQVDYLEATFKTVQE
notes: extra amino acids left at the N-terminus after PreScission cleavage of the GST tag; Brk1 (HSPC300 ortholog) of Dictyostelium discoideum, 68 residues; Calculated molar mass 8.61 kg/mol per chain; homotrimer by sedimentation equilibrium; also called DdHSPC300; HSPC300; source: E. coli BL21 DE3, purified (glutathione sepharose, PreScission cleavage, Mono Q, Superdex-S75); not shown: GST, N-terminal, …
On to B3, for which, in test [2], the binding result is listed as “binds”.
